Read-outs that look alike come from different tables or passages of the source. No constants are given. Whether binding was seen depends on the method and setting. In cells and extracts the contact can be indirect. Some entries that bind do so weakly or less than the wild type. For some assays here: Where a sequence is shown, tags or fusion partners need not be part of it.

We go through three molecules from article PMC8437041.

Holding throughout (test): co-IP
Test [1] addresses T1, Flag-tagged WT1-associated protein (WTAP), from pFlag-WTAP (UniProt Q15007).
T1 sequence: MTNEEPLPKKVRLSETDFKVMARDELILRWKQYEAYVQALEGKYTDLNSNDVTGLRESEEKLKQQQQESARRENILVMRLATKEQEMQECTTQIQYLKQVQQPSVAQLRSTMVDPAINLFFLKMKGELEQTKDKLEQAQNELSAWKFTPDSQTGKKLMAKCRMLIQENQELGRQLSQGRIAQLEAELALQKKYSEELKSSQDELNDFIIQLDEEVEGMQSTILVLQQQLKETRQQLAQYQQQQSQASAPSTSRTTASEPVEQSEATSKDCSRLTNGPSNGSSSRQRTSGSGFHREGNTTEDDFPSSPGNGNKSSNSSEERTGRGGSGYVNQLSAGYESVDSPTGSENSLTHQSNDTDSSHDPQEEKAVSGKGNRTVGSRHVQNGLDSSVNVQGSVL

For another test, the target named is T2, METTL14, from pMETTL14 (UniProt Q9HCE5).
T2 sequence: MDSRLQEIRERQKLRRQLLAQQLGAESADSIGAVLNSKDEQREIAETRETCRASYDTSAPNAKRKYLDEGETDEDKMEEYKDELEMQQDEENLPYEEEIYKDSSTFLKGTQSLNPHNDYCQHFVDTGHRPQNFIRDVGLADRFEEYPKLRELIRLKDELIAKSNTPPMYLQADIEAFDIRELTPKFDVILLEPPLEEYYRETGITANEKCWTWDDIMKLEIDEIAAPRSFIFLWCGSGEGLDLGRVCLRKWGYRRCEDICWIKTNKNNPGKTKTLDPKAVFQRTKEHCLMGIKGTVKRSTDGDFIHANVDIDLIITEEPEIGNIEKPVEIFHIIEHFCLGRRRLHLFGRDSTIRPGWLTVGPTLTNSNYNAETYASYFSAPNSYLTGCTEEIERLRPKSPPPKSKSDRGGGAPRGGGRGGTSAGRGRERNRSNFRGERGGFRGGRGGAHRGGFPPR

In test [2] the target is Flag-tagged methyltransferase-like 3 (METTL3), from pFlag-METTL3 (UniProt Q86U44).
Test [3] addresses HA-tagged SARS-CoV-2 RNA-dependent RNA polymerase (RdRp), from pHA-RdRp (SARS-CoV-2) (UniProt P0DTD1).
Test [4] shares this target. This is another data set of the same source.

As for “HA-tagged SARS-CoV-2 RNA-dependent RNA polymerase (RdRp), from pHA-RdRp (from UniProt P0DTD1 4393-5324) (enzyme)”, the binding result is recorded as “binds” in test [1]; “binds” with METTL14, from pMETTL14; “binds” in test [2].

As for “Flag-tagged methyltransferase-like 3 (METTL3), from pFlag-METTL3 (from UniProt Q86U44 1-580) (enzyme)”, the binding entry in test [3] is “binds”.

B1: METTL14, from pMETTL14 (protein, UniProt Q9HCE5 1-456)
chain: T2 sequence
B1: in test [4], the binding result was “binds”.
